According to article doi:10.1101/2025.01.07.631699:
Results are given in words; binding and its absence hold for the method and conditions named. In cells and extracts the contact can be indirect. These calls come from enrichment with a bait or labelling near it, and not all partners need be listed.

Chains of the proteins cited; added tags and fusions are not shown.
UniProt P48727: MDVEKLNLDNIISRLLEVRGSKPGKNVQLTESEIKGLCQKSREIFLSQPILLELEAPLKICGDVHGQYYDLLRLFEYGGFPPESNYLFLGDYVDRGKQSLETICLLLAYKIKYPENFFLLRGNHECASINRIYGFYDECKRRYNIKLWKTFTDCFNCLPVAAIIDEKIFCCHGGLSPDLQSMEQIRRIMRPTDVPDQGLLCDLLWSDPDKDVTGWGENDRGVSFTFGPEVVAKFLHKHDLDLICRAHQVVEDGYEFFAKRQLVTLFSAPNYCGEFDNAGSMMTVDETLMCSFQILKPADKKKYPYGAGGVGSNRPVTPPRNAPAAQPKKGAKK

Biological target: mNeonGreen tagged GSP-2 (C. elegans) (UniProt P48727)
Assay: affinity purification with mass spectrometry; mNeonGreen-Trap agarose beads with about 3 mg embryonic extract of the mNG::gsp-2 strain, 4°C for 1.5 h; IP buffer 100 mM KCl, 50 mM Tris pH 7.5, 1 mM MgCl2, 1 mM DTT, 5% glycerol, 0.2% NP-40, 1 mM EDTA; N2 strain as control; triplicate; DIA mass spectrometry

B1: SDS-22 (protein, UniProt P45969 1-326)
chain: MSNDKSAEVVVLPRENDEESKEPVLKNQFDLSTFDIDSPEIDLTHTRADHIPDLTGFPKIEELRMRNNLLVSISPTISSLVTLTSLDLYENQLTEISHLESLVNLVSLDLSYNRIRQINGLDKLTKLETLYLVSNKIEKIENLEALTQLKLLELGDNRIKKIENIGHLVNLDELFIGKNKIRQLEGVETLQKLSVLSLPGNRIVKIENVEQLNNLKELYLSDQGLQDIHGVEPLTNLLLLDVANNEIKTFSGVERLESLNDFWANDNKVESFSEIEQLSKLKGLQTVYLERNPFYFNDTNQYRRKVMMTLTQVTQIDATTCRKPIE
binding: binds

B2: APE-1 (protein, UniProt Q9XVN3 1-769)
chain: MVTTSSGGGIGYPANNGVTQVSLIHSSDSVRTVSTAPIYRPTSSMASTMAHKSSTAPFISANQRMSKPPVRVVAQPPPPHPQALSQQYHQQNPMMMYSAPNTRPHVIPTMQVQPTMAAQIKRNNPVNAQFQNPSEMIADYGVKPQSVEMVQRVRAVRRQVADEETELRRLRELEHETAQLQNKNYGRERELNVQGSMLKEAQLELRNASMRAQSLNKHLEEMYRRRQTAAAAALVEQRKMQQHQILLARAANQVSTQEVIRPRASVEPFQVNNTQQQQPSPQMMKSEEFSEKRDLNGQTGSYDAIDGSGDHQKIPTEPSYLAPCKENQQKYSELSKMASTDPHSNHSSPSTSSQKAPTLITFSPPSFEQKINSSTMTRDSPFVERPTSFGDSLDESRLRSGKTDLVSLRSDSLKATKRRSWAASEGTSMSEAEMIHRLLDEQRRGRSHFIPQLPTSQEEPSAITSETYAEEVVNSESKQVATSSDSTNNLELPTEQMVLGSDTTTEEDASSCSTRSDDGQNLEMEVAIERRTVKGILRRPNEKMNKGRIEFDPLALLLDAALEGELDLVRSSASKLTDVSQANDEGITALHNAICAGHYEIVRFLIENDADVNAQDSDGWTPLHCAASCNNLPMVRQLVEGGGCVLASTLSDMETPVEKCEEDEDGYDGCLKYLSAAHNSTGSINTGKVYAAYGYEAAFEDELSFDAGDELTVIEKDKVDKNWWTCEKNNGEKGQVPRTYLALYPSLKYRKKLNFVMFDLPLESNNNVE
binding: binds
